This is one part of the list. These are further read-outs of the screen, such as a control signal, another cell line or another target. No call is given for them. Compounds called inactive in the main read-out are mostly missing here. Words in brackets tell the shape of the fitted curve; partial curves, single points and poor fits give uncertain potencies.
Test: qHTS Assay for Lipid Storage Modulators in Drosophila S3 Cells;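 as to cell number change: cells counted by Cell Tracker Red CMTPX staining in the red channel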
Conditions: BODIPY lipid droplet fluorescence, 18-24 h; for cell number change: measured here: cell count max response, cells fed with added oleic acid
Outline: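 Drosophila S3 cells got compounds at several concentrations plus oleic acid (400 uM solution). Laser-scanning cytometry with 488 nm excitation read lipid droplets at 500-530 nm and cells at 575-640 nm. Percent activity was relative to 20 uM Triacsin C.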

[1] = measured here: lipid fluorescence (Fed channel) AC50, cells fed with added oleic acid
[2] = measured here: cell number channel AC50, cells fed with added oleic acid

| SMILES | AC50 [1] | cell number change [%] | AC50 [2] |
| --- | --- | --- | --- |
| Cc1cc2c(c(=O)n1Cc1ccccn1)C(C(C)C)C(C#N)=C(N)O2 (configuration not stated) | 1.46 µM [rising, full curve] |  |  |
| CCCOC(c1ccccc1)(c1ccc(C(F)(F)F)cc1)C(Oc1nc(C)cc(C)n1)C(=O)O (configuration not stated) | 29.1 µM [rising, single point] | -9.62 |  |
| CCCOc1ccc(C(=O)Nc2cccnc2)cc1 | 29.1 µM [falling, single point] | 5.28 |  |
| COc1cc(CNCCSc2nnnn2C)cc(OC)c1OC | 6.51 µM [falling, single point] | 27.3 |  |
| CSc1nnc(-c2sc3cc(C(F)(F)F)cnc3c2-c2cccnc2)n1C | 6.51 µM [rising, single point] | 38.1 | 3.66 µM [rising, partial curve] |
| COc1ccc2oc(=O)c(-c3nc(C)cs3)cc2c1 |  | 10 |  |
| CCSc1ncc(Cl)c(C(=O)N(Cc2ccc(N(C)C)cc2)C2CCS(=O)(=O)C2)n1 (configuration not stated) | 3.66 µM [rising, partial curve] |  | 3.66 µM [rising, partial curve, poor fit] |
| CC1CCCC(NC(=S)NC(=O)c2ccccc2Br)C1C (configuration not stated) | 32.6 µM [falling, single point] |  |  |
| COc1ccc2cc(C#N)c(SCC(=O)NNC(=O)Cc3ccccc3)nc2c1 | 3.26 µM [rising, partial curve] | 32.4 | 0.82 µM [rising, full curve] |
| S=c1[nH]nc(-c2cc(-c3ccco3)[nH]n2)n1-c1cccc2ccccc12 |  | -32.3 |  |
| COc1ccc(F)cc1S(=O)(=O)N1CC(C)CC(C)C1 (configuration not stated) |  | -113 | 32.6 µM [falling, partial curve, poor fit] |
| Cc1ccc(C)c(CN2C(=O)C(C)Oc3ccc(C)cc32)c1 (configuration not stated) | 0.259 µM [rising, partial curve] | 27.8 |  |
| Cc1nn(-c2ccccc2)c2sc(C(=O)NNC(=O)COc3ccccc3)cc12 |  | 7.99 |  |
| Cc1ccccc1C(=O)OCC(=O)N(C)c1ccccc1 | 5.62 µM [rising, single point] | 21.1 |  |
| Cc1cc(-c2nnc(SCC(=O)Nc3ccccc3C(F)(F)F)n2N)n[nH]1 |  | -2.29 |  |
| COC(=O)c1ccc(Nc2c([N+](=O)[O-])ccc3nonc23)cc1 |  | 44.4 | 29.1 µM [rising, single point] |
| O=C1NN(c2ccccc2)C(=O)/C1=C\c1cccc(OC(=O)c2cccs2)c1 | 4.61 µM [falling, single point] | 18.5 |  |
| Cc1nc2oc3c(NCc4ccccc4)ncnc3c2c2c1COC(C)(C)C2 | 0.82 µM [rising, partial curve] | 8.41 |  |
| COc1cccc(NC(=O)CN(C)C(=O)c2cc(S(=O)(=O)N3CCCCCC3)ccc2OC)c1 | 0.13 µM [falling, full curve, poor fit] | -7.12 |  |
| CCOc1ccc(S(=O)(=O)Nc2cc(Sc3ncn[nH]3)c3oc(=O)sc3c2)cc1 | 1.3 µM [falling, full curve] | -8.75 |  |
| O=C(Nc1cccc2c1CCCC2)c1ccccc1Cl | 29.1 µM [rising, single point] | -2.89 |  |

| SMILES | AC50 [1] | cell number change [%] | AC50 [2] |
| --- | --- | --- | --- |
| O=C(Nc1ccccc1)N1C(=O)C2(OCCO2)c2ccccc21 | 23.1 µM [falling, partial curve] | -189 | 29.1 µM [falling, partial curve] |
| CCc1ccc2nc(SCC(=O)N(CC)CC)c(C#N)cc2c1 | 4.11 µM [rising, full curve, poor fit] | -1.29 | 3.66 µM [rising, single point] |
| COc1ccc(C(c2nnnn2C2CCCC2)N2CCN(C(=O)c3ccco3)CC2)cc1OC (configuration not stated) |  | 15.4 |  |
| CCCCC1(Cc2ccc(OC)c([N+](=O)[O-])c2)C(=O)N(c2ccccc2)N(c2ccccc2)C1=O | 23.1 µM [falling, single point] |  | 2.91 µM [rising, partial curve] |
| CCOC1=C/C(=C/c2c(N)n3nc(S(=O)(=O)CC)sc3nc2=O)C=CC1=O | 29.1 µM [falling, single point] | -29 |  |
| O=C(Nc1ccccc1-c1nc2ccccc2[nH]1)c1sc2ccccc2c1Cl | 6.51 µM [falling, partial curve, poor fit] | -4.86 |  |
| Cc1ccccc1C(=O)NNC(=O)c1cccn1C | 0.0146 µM [falling, full curve, poor fit] | 2.72 |  |
| Nc1nc(SCC(=O)Nc2cccc(Oc3ccccc3)c2)n[nH]1 |  | 22 |  |
| Cc1nn(Cc2c(Cl)cccc2Cl)c(C)c1NC(=O)c1cc(C(C)C)on1 |  | -37.7 | 16.4 µM [falling, single point] |
| Cc1cc(=O)n2nc(N3CCC(C(=O)NCc4ccccc4)CC3)sc2n1 | 2.31 µM [rising, partial curve] | 0.567 |  |
| COCCn1nnnc1SCC(=O)c1ccc(F)cc1 | 13 µM [rising, single point] | 20.9 |  |
| O=C(NC(=S)Nc1ccc(F)cc1)C1CCCCC1 |  | -2.93 |  |
| COc1cc(/C=C/CN2CCC(CO)(CC3CCCCO3)CC2)ccc1O (configuration not stated) | 32.6 µM [falling, single point] | -9.89 |  |
| CCNc1nc(NCC)n2c(SCC(=O)O)nnc2n1 | 23.1 µM [falling, partial curve] |  |  |
| COC(=O)c1ccccc1NC(=O)CN1CCN(C(=O)c2ccco2)CC1 |  | 12.8 |  |
| CCCCCCCCC[n+]1cccc2c3ccccc3ccc21 |  | -24.4 | 4.11 µM [falling, partial curve, poor fit] |
| N#Cc1nc(-c2ccco2)oc1N1CCC(Cc2ccccc2)CC1 | 14.6 µM [rising, partial curve] | 57.1 | 11.6 µM [rising, partial curve] |
| O=C(NC1CC2CCC(C1)N2Cc1ccccc1)c1ccccc1Cl (configuration not stated) | 32.6 µM [rising, single point] | 2.71 |  |
| CC1CCN(C(=O)CSc2nc(C3CC3)nc3ccccc23)CC1 | 0.58 µM [rising, single point] | 10 |  |
| CC(C)Oc1ccc(N2CC(C(=O)Nc3ccccn3)CC2=O)cc1 (configuration not stated) | 6.51 µM [falling, single point] | -5.56 |  |
| COc1cc(CCC(=O)Nc2ccc(C)c(S(=O)(=O)N3CCCCCC3)c2)cc(OC)c1OC | 29.1 µM [falling, single point] | 15 | 1.3 µM [rising, partial curve] |

| SMILES | AC50 [1] | cell number change [%] | AC50 [2] |
| --- | --- | --- | --- |
| COc1ccc(S(=O)(=O)N2CCSC2C)cc1C (configuration not stated) | 0.731 µM [falling, partial curve, poor fit] |  |  |
| O=C(N/N=C/c1ccco1)c1cc(-c2ccncc2)nc2ccccc12 | 1.84 µM [falling, partial curve, poor fit] | -17.4 |  |
| CN1CCN(S(=O)(=O)c2ccc(Oc3cccc(C(F)(F)F)c3)nc2)CC1 | 8.2 µM [falling, partial curve] | -12.8 |  |
| COc1ccc(NC(=O)N2CCC(c3ccccc3)C2)c(OC)c1 (configuration not stated) | 6.51 µM [falling, single point] | -45.3 | 5.17 µM [falling, partial curve] |
| Cc1cc(C)nc(N/N=C/c2ccccc2OCc2ccc(Br)cc2)n1 | 32.6 µM [falling, single point] | 17 |  |
| O=C(/C=C/c1ccccc1Cl)Nc1ccccc1 | 0.092 µM [falling, full curve, poor fit] | -3.07 |  |
| CCCOC(=O)/C(=C\C=C\c1ccco1)NC(=O)c1ccccc1 | 0.13 µM [falling, full curve, poor fit] | -28.8 |  |
| COc1ccc(NC(=O)Cn2c(C)cc(=O)c3ccccc32)cc1 | 16.4 µM [falling, single point] | -30.1 | 14.6 µM [falling, single point] |
| O=C(c1ccc(Cl)cc1)N(c1ccccn1)C1CCCCC1 |  | -10.2 |  |
| O=C(NCc1ccccc1)c1c[nH]c2ccccc2c1=O | 29.1 µM [falling, single point] | -7.14 |  |
| COc1cccc(CN(C)C(=O)CN2C(=O)NC(c3ccccc3)(c3ccccc3)C2=O)c1 | 2.91 µM [falling, single point] | -12 |  |
| O=C(NCc1ccncc1)C(=O)N/N=C/c1ccccc1OCc1ccccc1 | 20.6 µM [falling, partial curve, poor fit] | -64.9 | 23.1 µM [falling, partial curve, poor fit] |
| CCCOc1ccc(-c2nc(N)n[nH]2)cc1 | 23.1 µM [rising, partial curve] | 147 |  |
| CC(C)NC(=O)c1cccc(C(F)(F)F)c1 | 6.51 µM [falling, single point] | 7.42 |  |
| CCN(CC)c1ccc(CNC(=O)C/C(C)=N/NC(=O)COc2ccc(C)cc2Br)cc1 | 5.17 µM [falling, single point] |  |  |
| O=C(CSc1nnc(-c2ccccc2)o1)NCC1CCCCC1 | 29.1 µM [falling, single point] | -15.2 |  |
| Cc1cc2sc3ccccc3c(=O)c2c(C)c1O | 9.2 µM [rising, partial curve] | 24.6 |  |
| CCn1cc(S(=O)(=O)Nc2cc(C)ccc2F)cn1 | 6.51 µM [falling, single point] | 13.2 |  |
| Cc1nc(NN)c2c3c(sc2n1)COC(C)(C)C3 | 3.26 µM [rising, partial curve, poor fit] | 26.3 |  |

Looked up above:
In AC50 [1], `CCN(CC)c1ccc(CNC(=O)C/C(C)=N/NC(=O)COc2ccc(C)cc2Br)cc1` reads 5.17 µM [falling, single point]
In AC50 [1], `Cc1nc(NN)c2c3c(sc2n1)COC(C)(C)C3` reads 3.26 µM [rising, partial curve, poor fit]
In cell number change [%], `COc1cccc(CN(C)C(=O)CN2C(=O)NC(c3ccccc3)(c3ccccc3)C2=O)c1` reads -12
In cell number change [%], `O=C(/C=C/c1ccccc1Cl)Nc1ccccc1` reads -3.07
In cell number change [%], `CCCOC(=O)/C(=C\C=C\c1ccco1)NC(=O)c1ccccc1` reads -28.8
In AC50 [1], `CCn1cc(S(=O)(=O)Nc2cc(C)ccc2F)cn1` reads 6.51 µM [falling, single point]

Source: PubChem BioAssay AID2685 (National Center for Advancing Translational Sciences (NCATS), 2010)
